# Assay results taken from the supplement of paper PMC10849652.
# Sequences of proteins named here, by UniProt entry; tags and fusion partners are left off. A change or cut given only in a name is not applied to a line headed by its entry.
# UniProt Q96DB9: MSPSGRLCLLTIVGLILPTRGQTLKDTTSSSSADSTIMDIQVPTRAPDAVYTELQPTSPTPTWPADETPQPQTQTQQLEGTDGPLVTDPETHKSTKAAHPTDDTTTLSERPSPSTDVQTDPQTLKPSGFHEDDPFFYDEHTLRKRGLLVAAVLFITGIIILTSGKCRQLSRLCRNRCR
# UniProt Q9UQC2, whole entry, looked up: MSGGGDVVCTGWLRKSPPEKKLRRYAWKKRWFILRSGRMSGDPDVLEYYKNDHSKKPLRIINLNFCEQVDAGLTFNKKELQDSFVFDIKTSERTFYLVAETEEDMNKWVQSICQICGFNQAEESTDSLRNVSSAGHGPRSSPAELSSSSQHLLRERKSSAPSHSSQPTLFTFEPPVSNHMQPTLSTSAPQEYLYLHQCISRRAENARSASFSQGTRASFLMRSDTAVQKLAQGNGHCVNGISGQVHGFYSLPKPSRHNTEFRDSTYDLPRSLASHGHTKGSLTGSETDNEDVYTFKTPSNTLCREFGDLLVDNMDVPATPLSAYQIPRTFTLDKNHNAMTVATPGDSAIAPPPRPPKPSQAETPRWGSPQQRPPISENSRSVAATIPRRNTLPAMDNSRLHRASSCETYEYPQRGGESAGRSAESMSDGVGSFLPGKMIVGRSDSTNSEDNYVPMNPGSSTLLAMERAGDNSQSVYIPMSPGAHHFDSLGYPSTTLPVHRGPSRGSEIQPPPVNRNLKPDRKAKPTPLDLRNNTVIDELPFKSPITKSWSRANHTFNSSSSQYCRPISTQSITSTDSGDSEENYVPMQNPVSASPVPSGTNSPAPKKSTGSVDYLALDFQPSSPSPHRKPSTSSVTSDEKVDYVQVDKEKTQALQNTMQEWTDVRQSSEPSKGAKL
# UniProt Q9UP38, whole entry, looked up: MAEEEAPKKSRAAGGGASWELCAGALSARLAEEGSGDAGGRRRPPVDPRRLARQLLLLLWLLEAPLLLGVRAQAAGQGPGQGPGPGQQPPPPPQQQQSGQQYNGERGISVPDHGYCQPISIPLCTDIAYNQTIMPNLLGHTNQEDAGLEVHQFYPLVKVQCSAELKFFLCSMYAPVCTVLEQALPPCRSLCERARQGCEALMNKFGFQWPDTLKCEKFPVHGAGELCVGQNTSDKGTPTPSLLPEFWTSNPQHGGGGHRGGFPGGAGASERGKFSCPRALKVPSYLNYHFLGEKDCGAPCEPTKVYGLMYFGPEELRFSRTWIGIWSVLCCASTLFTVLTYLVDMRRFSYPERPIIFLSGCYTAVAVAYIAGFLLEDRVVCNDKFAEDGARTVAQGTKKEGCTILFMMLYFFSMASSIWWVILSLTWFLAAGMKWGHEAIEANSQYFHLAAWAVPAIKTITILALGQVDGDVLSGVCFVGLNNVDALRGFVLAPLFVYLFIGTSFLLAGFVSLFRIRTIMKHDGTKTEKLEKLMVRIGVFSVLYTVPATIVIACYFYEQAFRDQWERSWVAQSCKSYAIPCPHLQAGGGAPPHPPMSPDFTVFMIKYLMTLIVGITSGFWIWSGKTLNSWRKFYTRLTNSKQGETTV
# UniProt Q8IY81: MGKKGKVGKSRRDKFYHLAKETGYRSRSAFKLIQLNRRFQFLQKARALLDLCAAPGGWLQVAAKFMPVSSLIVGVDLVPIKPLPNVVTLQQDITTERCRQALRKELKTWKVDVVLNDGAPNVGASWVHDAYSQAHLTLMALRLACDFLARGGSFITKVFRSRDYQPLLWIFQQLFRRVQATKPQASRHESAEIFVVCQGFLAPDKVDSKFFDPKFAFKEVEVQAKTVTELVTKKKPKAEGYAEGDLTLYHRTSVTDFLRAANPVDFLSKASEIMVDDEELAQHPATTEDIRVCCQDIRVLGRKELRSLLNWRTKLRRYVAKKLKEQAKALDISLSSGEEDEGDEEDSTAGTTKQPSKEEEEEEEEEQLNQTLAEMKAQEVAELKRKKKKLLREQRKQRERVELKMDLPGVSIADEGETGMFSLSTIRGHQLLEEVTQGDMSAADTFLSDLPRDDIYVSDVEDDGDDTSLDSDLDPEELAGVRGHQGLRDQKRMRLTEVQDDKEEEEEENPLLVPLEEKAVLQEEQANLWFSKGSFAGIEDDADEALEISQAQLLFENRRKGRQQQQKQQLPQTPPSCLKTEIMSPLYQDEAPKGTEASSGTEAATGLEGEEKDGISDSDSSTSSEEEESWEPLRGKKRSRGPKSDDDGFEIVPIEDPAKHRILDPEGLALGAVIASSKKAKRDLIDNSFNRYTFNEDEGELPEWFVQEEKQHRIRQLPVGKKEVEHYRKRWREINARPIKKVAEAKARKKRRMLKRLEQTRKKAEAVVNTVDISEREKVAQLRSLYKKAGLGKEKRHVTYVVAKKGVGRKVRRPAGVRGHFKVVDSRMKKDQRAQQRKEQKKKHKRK
# UniProt P01275: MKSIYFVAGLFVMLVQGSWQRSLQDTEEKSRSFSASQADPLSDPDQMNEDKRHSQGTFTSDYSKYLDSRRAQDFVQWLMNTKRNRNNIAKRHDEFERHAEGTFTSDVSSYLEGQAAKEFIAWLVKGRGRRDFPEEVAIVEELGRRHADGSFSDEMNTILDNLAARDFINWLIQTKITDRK
# UniProt O75879: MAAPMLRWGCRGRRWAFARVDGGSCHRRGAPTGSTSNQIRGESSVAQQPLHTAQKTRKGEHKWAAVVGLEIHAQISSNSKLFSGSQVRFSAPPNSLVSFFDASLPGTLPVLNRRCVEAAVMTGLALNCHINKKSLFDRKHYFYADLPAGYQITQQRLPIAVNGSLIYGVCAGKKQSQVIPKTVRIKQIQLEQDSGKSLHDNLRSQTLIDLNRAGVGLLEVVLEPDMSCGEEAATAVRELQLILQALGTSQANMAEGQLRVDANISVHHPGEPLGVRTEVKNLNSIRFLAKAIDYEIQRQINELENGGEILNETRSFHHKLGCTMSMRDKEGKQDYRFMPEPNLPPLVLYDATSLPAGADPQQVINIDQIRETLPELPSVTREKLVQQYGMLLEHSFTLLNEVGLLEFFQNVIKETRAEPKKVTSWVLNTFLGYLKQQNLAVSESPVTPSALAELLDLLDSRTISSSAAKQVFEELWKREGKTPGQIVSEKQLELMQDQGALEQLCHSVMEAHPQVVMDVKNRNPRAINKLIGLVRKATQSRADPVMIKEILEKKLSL
# UniProt Q86SR1: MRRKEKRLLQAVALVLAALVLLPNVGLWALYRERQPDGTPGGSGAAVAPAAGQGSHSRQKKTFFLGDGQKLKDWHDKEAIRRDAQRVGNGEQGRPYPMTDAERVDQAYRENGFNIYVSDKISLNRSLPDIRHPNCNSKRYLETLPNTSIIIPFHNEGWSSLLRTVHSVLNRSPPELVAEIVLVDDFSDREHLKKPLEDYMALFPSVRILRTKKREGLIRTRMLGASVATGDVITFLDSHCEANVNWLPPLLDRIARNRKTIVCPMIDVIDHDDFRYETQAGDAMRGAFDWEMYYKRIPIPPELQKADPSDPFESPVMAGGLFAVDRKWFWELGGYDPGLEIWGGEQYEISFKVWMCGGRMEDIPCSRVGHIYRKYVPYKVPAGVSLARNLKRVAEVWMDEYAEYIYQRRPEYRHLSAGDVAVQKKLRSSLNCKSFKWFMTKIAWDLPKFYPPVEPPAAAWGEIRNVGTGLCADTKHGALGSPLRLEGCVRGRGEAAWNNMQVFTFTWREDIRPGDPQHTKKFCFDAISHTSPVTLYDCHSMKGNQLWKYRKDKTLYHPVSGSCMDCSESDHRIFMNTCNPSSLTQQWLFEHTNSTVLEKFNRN
# UniProt Q14697: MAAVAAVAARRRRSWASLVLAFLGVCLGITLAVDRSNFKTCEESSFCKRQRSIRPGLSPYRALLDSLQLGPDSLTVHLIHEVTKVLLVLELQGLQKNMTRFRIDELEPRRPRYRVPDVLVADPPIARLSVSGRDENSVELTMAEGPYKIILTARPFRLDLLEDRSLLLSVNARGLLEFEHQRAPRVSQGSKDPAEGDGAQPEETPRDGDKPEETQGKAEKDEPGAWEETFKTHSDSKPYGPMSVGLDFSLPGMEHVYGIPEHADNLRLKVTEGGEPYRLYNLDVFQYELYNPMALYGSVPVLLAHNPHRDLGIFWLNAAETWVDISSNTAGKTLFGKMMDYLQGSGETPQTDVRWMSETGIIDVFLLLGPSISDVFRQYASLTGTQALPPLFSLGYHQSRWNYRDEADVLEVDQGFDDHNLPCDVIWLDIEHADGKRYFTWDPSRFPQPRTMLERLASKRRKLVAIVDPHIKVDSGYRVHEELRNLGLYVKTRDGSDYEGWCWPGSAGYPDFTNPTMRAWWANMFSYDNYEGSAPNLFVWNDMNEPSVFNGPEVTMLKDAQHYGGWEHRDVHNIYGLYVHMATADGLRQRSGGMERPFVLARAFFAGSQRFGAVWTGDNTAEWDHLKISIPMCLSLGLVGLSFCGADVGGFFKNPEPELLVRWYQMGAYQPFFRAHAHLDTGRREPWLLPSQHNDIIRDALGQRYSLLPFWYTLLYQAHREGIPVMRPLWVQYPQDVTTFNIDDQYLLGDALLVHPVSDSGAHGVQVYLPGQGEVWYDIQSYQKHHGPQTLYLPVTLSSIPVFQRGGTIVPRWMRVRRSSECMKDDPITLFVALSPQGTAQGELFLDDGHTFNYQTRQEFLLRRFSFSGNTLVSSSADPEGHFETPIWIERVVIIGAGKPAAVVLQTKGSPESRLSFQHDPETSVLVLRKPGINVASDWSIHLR
# UniProt P16383: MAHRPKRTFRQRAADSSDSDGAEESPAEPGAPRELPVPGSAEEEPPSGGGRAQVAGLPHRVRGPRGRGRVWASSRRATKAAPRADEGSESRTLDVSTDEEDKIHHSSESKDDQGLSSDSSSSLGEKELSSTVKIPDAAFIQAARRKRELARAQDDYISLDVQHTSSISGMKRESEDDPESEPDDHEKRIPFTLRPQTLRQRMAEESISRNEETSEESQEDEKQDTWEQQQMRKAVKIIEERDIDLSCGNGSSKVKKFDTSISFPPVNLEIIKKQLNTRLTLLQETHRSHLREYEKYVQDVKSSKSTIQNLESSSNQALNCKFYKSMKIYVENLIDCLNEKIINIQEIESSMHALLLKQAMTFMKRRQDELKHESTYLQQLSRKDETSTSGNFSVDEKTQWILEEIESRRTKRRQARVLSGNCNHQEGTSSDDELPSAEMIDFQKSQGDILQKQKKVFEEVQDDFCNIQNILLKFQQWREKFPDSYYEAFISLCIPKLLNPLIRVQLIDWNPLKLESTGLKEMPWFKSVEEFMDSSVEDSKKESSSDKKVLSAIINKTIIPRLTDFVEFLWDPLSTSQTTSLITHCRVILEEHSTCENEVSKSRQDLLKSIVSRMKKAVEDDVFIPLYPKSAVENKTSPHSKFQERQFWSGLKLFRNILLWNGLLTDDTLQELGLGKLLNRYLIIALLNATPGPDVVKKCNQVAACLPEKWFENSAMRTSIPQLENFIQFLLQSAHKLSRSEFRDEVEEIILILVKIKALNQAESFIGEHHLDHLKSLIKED
# UniProt Q6ZNW5: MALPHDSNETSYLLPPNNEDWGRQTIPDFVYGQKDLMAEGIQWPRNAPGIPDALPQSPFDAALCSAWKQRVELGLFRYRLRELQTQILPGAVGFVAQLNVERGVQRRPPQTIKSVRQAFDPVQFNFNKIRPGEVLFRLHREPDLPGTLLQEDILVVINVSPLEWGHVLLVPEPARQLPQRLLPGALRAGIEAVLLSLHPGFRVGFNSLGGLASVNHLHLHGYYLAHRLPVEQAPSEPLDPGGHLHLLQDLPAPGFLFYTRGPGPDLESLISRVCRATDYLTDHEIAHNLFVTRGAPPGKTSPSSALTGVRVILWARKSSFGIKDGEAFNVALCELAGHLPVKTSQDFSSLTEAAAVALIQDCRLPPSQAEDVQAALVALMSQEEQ
# UniProt Q13467, whole entry, looked up: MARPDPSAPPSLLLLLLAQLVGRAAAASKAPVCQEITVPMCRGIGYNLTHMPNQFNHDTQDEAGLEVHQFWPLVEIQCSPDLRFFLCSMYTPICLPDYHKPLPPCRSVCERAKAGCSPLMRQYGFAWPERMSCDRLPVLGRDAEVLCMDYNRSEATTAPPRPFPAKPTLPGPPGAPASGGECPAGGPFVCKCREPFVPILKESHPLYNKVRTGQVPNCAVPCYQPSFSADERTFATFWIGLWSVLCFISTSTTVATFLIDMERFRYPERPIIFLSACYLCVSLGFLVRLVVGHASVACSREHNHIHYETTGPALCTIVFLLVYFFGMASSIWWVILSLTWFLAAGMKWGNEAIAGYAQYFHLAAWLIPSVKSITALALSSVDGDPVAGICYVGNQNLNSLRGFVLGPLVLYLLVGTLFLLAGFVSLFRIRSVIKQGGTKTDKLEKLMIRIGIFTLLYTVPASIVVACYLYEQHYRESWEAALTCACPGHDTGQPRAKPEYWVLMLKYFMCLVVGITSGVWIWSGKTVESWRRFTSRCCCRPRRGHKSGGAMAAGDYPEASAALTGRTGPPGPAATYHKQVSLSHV
# UniProt P22466: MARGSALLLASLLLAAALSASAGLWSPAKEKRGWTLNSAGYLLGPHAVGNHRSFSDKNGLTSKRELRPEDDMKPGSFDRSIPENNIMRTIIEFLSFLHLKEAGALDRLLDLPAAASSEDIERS
# This is one part of the list.
# What was measured:
# Test in all cases: log2 fold change, soluble protein after heating vs DMSO (PISA); higher = thermal stabilisation; K562 cells, 10 uM, 30 min; active = over 0.2 and 3.5 SD of the protein, either way, in both replicates (recomputed)
# [1] = compound: CC1=C2C(=CC=C1)N=C(N(C2=O)C3=CC=CC=C3C)CN4C=NC5=C(N=CN=C54)N
# How it was run: (§1)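 Soluble protein was defined as the supernatant after 21,000xg for 90 min. It came from K562 cells at 2×10^6 cells/mL given 10 μM compound for 30 min, heated in aliquots for 3 min across 48°C-58°C, pooled, and extracted in PBS with 0.5% NP-40 at 4°C, and was quantified by TMTpro 16plex LC-MS/MS with equalised channel sums. Thermal stability against control samples, from duplicates, is reported as log2 fold change.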
# [2] = compound: CC1=C(SC2=C1C(=N[C@H](C3=NN=C(N32)C)CC(=O)N)C4=CC=C(C=C4)Cl)C
# How it was run: as §1
# [3] = compound: c1ccc([C@@H]2C[C@H]2NC2CCNCC2)cc1
# How it was run: as §1
# [4] = compound: C1=CC=C(C=C1)[C@H](COC2=CC3=C(C=C2)NC(=O)N3)NC(=O)C4=CC=CN(C4=O)CC5=CC(=C(C=C5)F)F
# How it was run: as §1
# [5] = compound: Cc1sc2c(c1C)C(c1ccc(Cl)cc1)=N[C@@H](CC(=O)OC(C)(C)C)c1nnc(C)n1-2
# How it was run: as §1
Target,log2 fold change [1],log2 fold change [2],log2 fold change [3],log2 fold change [4],log2 fold change [5]
G6PC3 (UniProt Q9BUM1),inactive: 0.053,,,,
FXYD5 (UniProt Q96DB9),inactive: 0.19,inactive: 0.177,inactive: -0.133,,
FOSL1 (UniProt P15407),inactive: 0.139,inactive: -0.027,inactive: 0.061,inactive: 0.061,
GDPD3 (UniProt Q7L5L3),inactive: -0.295,,,,
FYB1 isoform 3 (UniProt O15117),inactive: 0.005,,,inactive: -0.09,inactive: -0.017
GAB2 (UniProt Q9UQC2),inactive: -0.059,inactive: 0.153,inactive: -0.034,,inactive: 0.396
GEMIN8 (UniProt Q9NWZ8),inactive: 0.003,inactive: -0.294,inactive: 0.091,,inactive: 0.124
FZD1 (UniProt Q9UP38),inactive: 0.034,inactive: 0,inactive: 0.168,inactive: 0.18,
FPGS (UniProt Q05932),inactive: 0.117,inactive: -0.069,inactive: 0.196,inactive: -0.072,
FTSJ3 (UniProt Q8IY81),,inactive: -0.276,inactive: 0.097,,
FUT4 (UniProt P22083),,,,,inactive: 0.108
GAA (UniProt P10253),inactive: -0.042,,,,inactive: -0.085
GCG (UniProt P01275),,inactive: 0.058,inactive: 1.01,,
FRMD8 (UniProt Q9BZ67),,inactive: 0.159,inactive: -0.377,,inactive: 0.157
GATB (UniProt O75879),inactive: 0.123,,,,inactive: -0.035
GABPB1 (UniProt Q06547),inactive: -0.102,,,inactive: -0.032,inactive: -0.201

Target,log2 fold change [1],log2 fold change [2],log2 fold change [3],log2 fold change [4],log2 fold change [5]
GALNT10 (UniProt Q86SR1),,inactive: -0.013,inactive: -0.058,inactive: 0.105,
GGT1 (UniProt P19440),,,,inactive: -0.064,inactive: 0.161
GARS1 (UniProt H7C443),inactive: 0.053,inactive: 0.001,inactive: 0.017,,inactive: 0.173
FOXRED2 (UniProt Q8IWF2),inactive: 0.195,inactive: -0.103,inactive: -0.066,,inactive: 0.033
GANAB (UniProt Q14697),,,,,inactive: -0.299
FOXJ2 (UniProt Q9P0K8),inactive: 0.186,inactive: 0.014,inactive: 0.15,,
GATAD2B (UniProt Q8WXI9),inactive: 0.171,,,,inactive: -0.022
GALNT7 (UniProt H0YAH3),inactive: 0.136,inactive: -0.083,inactive: -0.19,inactive: 0.045,
FRYL isoform 2 (UniProt O94915),inactive: 0.507,inactive: -0.043,inactive: 0.025,,
GCFC2 isoform 3 (UniProt P16383),inactive: -0.171,,,,inactive: 0.02
GAK (UniProt O14976),inactive: -0.032,inactive: 0.095,inactive: -0.209,,inactive: 0.078
GALNT3 (UniProt Q14435),,,,,inactive: -0.136
GDPGP1 (UniProt Q6ZNW5),,inactive: 0.11,inactive: -0.041,,inactive: 0.067
GEMIN2 (UniProt O14893),inactive: -0.049,inactive: 0.013,inactive: 0.025,inactive: 0.044,
FZD5 (UniProt Q13467),,,,inactive: -0.022,inactive: -0.126
GAL (UniProt P22466),inactive: 0,,,inactive: -0.104,

# A different layout for some results above.
Target	log2 fold change [1]	log2 fold change [2]	log2 fold change [3]	log2 fold change [4]	log2 fold change [5]
FZD1 (UniProt Q9UP38)	inactive: 0.034	inactive: 0	inactive: 0.168	inactive: 0.18	
FTSJ3 (UniProt Q8IY81)		inactive: -0.276	inactive: 0.097		
